This passage reports step yield results from patent US4743677A (Toyo Jozo Co., Ltd., priority 1985, dated 1988).

Strings that start with PEPTIDE1 are HELM notation: dots part the residues, brackets hold end groups and non-standard residues.

The data set can be described thus: general procedure: hybrid (solid and solution phase) peptide synthesis; MBHA resin (Applied Biosystems; amino groups 0.61 mmole/g); DCC; DCC/HOBt double coupling for Asn and Arg; azide fragment coupling. The note with it: purification step, on 0.0165 mmole protected polypeptide.

“PEPTIDE1{[Mpa].D.T.A.T.C.V.T.H.R.L.A.G.L.L.S.R.S.G.G.V.V.K.N.N.F.V.P.T.N.V.G.S.K.A.F.[am]}$PEPTIDE1,PEPTIDE1,1:R3-6:R3$$$V2.0” registered a step yield of 40.0%.
